These are yes or no findings as the source states them, for the method shown. In cells and extracts the contact can be indirect. Some entries that bind do so weakly or less than the wild type.
Target: EZH2 (human (endogenous in HuAECs)) (UniProt Q15910)
Experiment: co-IP; co-immunoprecipitation then western blot from HuAECs overexpressing miR-544 or miR-mut (control); endogenous proteins; the precipitating antibodies are not told in the text shown (full methods in the supplement)

Chains of the proteins cited; added tags and fusions are not shown.
UniProt Q15910: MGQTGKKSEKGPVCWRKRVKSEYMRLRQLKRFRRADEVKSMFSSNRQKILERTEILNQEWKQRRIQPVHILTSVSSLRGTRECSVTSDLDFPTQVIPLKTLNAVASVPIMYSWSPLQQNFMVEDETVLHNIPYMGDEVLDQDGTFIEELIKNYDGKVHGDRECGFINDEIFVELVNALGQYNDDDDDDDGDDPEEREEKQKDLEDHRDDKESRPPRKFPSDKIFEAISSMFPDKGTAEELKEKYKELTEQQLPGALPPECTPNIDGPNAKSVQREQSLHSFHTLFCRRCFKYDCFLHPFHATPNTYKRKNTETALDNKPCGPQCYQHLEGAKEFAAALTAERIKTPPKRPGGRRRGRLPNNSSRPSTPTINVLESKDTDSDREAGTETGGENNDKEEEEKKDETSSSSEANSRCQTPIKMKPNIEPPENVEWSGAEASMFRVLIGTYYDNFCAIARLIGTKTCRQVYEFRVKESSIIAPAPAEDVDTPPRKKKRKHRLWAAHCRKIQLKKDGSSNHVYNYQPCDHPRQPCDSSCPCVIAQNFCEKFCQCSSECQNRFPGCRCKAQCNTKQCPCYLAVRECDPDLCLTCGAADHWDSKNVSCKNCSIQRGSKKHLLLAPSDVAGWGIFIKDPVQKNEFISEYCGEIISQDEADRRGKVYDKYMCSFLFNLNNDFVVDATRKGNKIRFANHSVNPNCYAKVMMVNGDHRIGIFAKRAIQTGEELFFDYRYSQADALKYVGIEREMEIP
UniProt P25490: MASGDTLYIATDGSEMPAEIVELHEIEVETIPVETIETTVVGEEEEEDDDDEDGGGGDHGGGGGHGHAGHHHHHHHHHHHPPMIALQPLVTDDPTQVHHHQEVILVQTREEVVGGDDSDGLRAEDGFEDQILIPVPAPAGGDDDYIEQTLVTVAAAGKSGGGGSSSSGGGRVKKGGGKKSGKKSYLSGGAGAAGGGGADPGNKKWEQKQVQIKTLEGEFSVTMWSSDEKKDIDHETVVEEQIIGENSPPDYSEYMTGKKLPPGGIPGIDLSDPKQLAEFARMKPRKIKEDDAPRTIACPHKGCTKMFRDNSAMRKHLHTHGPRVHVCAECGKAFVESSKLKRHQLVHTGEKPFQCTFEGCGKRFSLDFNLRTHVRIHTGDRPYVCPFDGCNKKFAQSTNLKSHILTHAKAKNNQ

YinYang 1 (YY1) (from UniProt P25490 1-414)
binding: binds

— article PMC7055126
